# Reference: article doi:10.1101/526152
# Amino acid sequences for entries named in this document (tags omitted). A change or cut given only in a name is not applied to a line headed by its entry. Residues count along the entry.
# UniProt P46940: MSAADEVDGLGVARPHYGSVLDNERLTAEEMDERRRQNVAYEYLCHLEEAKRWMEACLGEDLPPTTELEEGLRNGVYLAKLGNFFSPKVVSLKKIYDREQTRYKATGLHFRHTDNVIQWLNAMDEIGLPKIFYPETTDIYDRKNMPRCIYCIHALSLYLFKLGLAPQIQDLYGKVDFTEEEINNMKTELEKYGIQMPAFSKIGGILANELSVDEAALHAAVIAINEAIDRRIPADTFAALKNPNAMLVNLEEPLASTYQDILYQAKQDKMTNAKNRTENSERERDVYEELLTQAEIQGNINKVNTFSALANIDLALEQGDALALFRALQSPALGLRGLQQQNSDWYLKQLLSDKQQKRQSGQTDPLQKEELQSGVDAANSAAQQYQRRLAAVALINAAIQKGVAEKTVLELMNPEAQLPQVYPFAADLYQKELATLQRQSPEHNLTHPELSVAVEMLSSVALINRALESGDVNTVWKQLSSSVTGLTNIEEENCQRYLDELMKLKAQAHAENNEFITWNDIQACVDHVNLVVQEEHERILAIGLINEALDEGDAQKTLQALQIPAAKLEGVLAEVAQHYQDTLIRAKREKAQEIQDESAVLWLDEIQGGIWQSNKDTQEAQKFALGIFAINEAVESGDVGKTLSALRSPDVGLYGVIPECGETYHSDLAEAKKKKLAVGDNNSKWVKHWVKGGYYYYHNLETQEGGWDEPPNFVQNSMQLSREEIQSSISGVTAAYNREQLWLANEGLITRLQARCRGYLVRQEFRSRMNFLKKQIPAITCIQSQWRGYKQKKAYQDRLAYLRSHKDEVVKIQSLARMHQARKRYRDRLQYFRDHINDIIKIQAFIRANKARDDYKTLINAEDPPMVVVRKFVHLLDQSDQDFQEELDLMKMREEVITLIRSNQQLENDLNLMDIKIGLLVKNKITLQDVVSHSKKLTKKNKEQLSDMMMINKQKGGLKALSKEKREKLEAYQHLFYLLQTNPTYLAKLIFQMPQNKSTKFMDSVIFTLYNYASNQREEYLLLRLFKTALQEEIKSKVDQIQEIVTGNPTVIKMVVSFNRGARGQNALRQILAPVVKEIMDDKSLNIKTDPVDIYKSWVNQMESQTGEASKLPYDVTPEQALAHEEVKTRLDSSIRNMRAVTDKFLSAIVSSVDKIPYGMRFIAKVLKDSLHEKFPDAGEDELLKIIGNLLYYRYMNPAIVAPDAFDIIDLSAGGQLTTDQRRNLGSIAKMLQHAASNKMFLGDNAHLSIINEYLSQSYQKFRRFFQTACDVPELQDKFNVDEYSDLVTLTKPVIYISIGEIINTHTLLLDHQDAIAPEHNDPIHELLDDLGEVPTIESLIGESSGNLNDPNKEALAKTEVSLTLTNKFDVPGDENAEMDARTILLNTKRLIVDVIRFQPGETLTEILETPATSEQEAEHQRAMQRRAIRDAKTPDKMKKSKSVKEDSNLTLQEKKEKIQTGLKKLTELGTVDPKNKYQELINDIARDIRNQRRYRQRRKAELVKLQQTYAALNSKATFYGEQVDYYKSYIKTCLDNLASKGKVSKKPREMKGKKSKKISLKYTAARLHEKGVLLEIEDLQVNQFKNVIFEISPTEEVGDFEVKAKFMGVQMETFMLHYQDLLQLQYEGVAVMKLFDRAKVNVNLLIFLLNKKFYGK
# GST-IQGAP1-N (aa 1–863): residues 1-863 of P46940
# GST-IQGAP1-C (aa 746–1657): residues 746-1657 of P46940
# No constants are given. Whether binding was seen depends on the method and setting. In cells and extracts the contact can be indirect. Some entries that bind do so weakly or less than the wild type.
# B1: Phospholipase C (PLC)-δ1 (enzyme, UniProt P51178 1-756)
# chain: MDSGRDFLTLHGLQDDEDLQALLKGSQLLKVKSSSWRRERFYKLQEDCKTIWQESRKVMRTPESQLFSIEDIQEVRMGHRTEGLEKFARDVPEDRCFSIVFKDQRNTLDLIAPSPADAQHWVLGLHKIIHHSGSMDQRQKLQHWIHSCLRKADKNKDNKMSFKELQNFLKELNIQVDDSYARKIFRECDHSQTDSLEDEEIEAFYKMLTQRVEIDRTFAEAAGSGETLSVDQLVTFLQHQQREEAAGPALALSLIERYEPSETAKAQRQMTKDGFLMYLLSADGSAFSLAHRRVYQDMGQPLSHYLVSSSHNTYLLEDQLAGPSSTEAYIRALCKGCRCLELDCWDGPNQEPIIYHGYTFTSKILFCDVLRAIRDYAFKASPYPVILSLENHCTLEQQRVMARHLHAILGPMLLNRPLDGVTNSLPSPEQLKGKILLKGKKLGGLLPPGGEGGPEATVVSDEDEAAEMEDEAVRSRVQHKPKEDKLRLAQELSDMVIYCKSVHFGGFSSPGTPGQAFYEMASFSENRALRLLQESGNGFVRHNVGHLSRIYPAGWRTDSSNYSPVEMWNGGCQIVALNFQTPGPEMDVYQGRFQDNGACGYVLKPAFLRDPNGTFNPRALAQGPWWARKRLNIRVISGQQLPKVNKNKNSIVDPKVTVEIHGVSRDVASRQTAVITNNGFNPWWDTEFAFEVVVPDLALIRFLVEDYDASSKNDFIGQSTIPLNSLKQGYRHVHLMSKNGDQHPSATLFVKISLQD
# B2: PLC-δ1 (1–756) (enzyme, UniProt P51178 1-756)
# chain: B1 chain
# Assays:
# [1] = target: IQ motif-containing GTPase-activating protein 1 (IQGAP1) (human (endogenous in skin fibroblasts)) (UniProt P46940); assay: co-IP
# [2] = target: GST-IQGAP1-C (aa 746–1657) (human) (UniProt P46940); assay: pull-down
# [3] = target: GST-IQGAP1-N (aa 1–863) (human) (UniProt P46940); assay: pull-down
Binder,binding [1],binding [2],binding [3]
B1,binds,–,–
B2,–,no binding,binds
